PubChem BioAssay AID504834 (National Center for Advancing Translational Sciences (NCATS), 2011)
Screen size: about 320,000 compounds; about 22,000 (6.9%) were called active. Inconclusive results, whose numbers are uncertain, are shown with a selection of clear calls. Calls come from the whole dose curve; as a rule, active = well fitted inhibition curve with a large enough effect; inconclusive = small, poorly fitted or top-dose-only effect, or another doubt; inactive = no such curve, though single readings can be large or run the other way. Potencies of inconclusive entries are doubtful fits and often do not repeat.
% is set by controls: 0 for no effect and ±100 for the full control effect; potency is the fitted concentration of half-maximal effect.

Assay: Primary qHTS for delayed death inhibitors of the malarial parasite plastid, 96 hour incubation
Conditions: P. falciparum luciferase reporter growth; series mostly up to 28.7 µM; activity change, negative = inhibition: at the top concentration
How it was run: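 Luminescence readout: decreased luciferase signal marks inhibited growth of reporter-expressing P. falciparum in infected red cells (2% hematocrit, 0.05% parasitemia final), exposed to compound two generations (96 h, 37 C, 5% CO2).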
In the case of COCCCN(Cc1ccco1)C(=O)Cn1ncc2c([nH]c3ccccc32)c1=O, the Potency is reported as inconclusive: 11.7 µM [inhibitor, single point]. For COc1ccc(S(=O)(=O)N2Cc3ccccc3CC2C(=O)Nc2ccc(O)cc2)cc1OC (stereo not drawn), the Potency was active: 3.7 µM. With O=c1nc(-c2ccccc2Cl)c2cc(F)ccc2[nH]1 the Potency was inconclusive: 10.4 µM [inhibitor, partial curve, poor fit]. In the case of CC(=O)Nc1ccc(NC(=O)Cc2ccc(S(=O)(=O)N3CCCCC3)cc2)cc1, the Potency is reported as inconclusive: 18.5 µM [inhibitor, partial curve, poor fit]. In the case of O=C(OCC(=O)N1CCc2ccccc2C1)c1ccc(Cl)c([N+](=O)[O-])c1, the “activity change, negative = inhibition” value is reported as inactive: -18.3%. For COc1ccc(Cc2nc3c4c(ncn3n2)Oc2ccc3ccccc3c2C4c2ccc(OC)c(OC)c2)cc1 (stereo not drawn), the Potency was inconclusive: 0.37 µM [inhibitor, full curve]. With CCN(CCCNC(=O)c1cc2cc3ccc(OC)cc3nc2s1)c1ccccc1 the Potency was inconclusive: 18.5 µM [inhibitor, partial curve, poor fit]. In the case of Cc1ccc(C)c(C(=O)Nc2cc(C)nn2-c2nc(C)cc(C)n2)c1, the Potency is reported as inconclusive: 0.0037 µM [inhibitor, full curve, poor fit]. For Cc1cc(C)n(C(=O)c2cc3sccc3[nH]2)n1, the “activity change, negative = inhibition” value was inactive: -19.8%. In the case of O=C(Cn1cnc2scc(-c3ccccc3)c2c1=O)NCc1ccco1, the “activity change, negative = inhibition” value is reported as inactive: 96.5%. For Cc1cccc(NCC(=O)N/N=C\c2ccccn2)c1, the Potency was inconclusive: 13.1 µM [inhibitor, single point]. With O=C(c1ccc(Cl)cc1)c1cc(-c2ccccn2)c(N2CCOCC2)s1 the Potency was inconclusive: 18.5 µM [inhibitor, single point]. In the case of O=C(O)c1ccc(NC(=O)N2C[C@H]3C[C@@H](C2)c2cccc(=O)n2C3)cc1, the Potency is reported as inconclusive: 0.0185 µM [inhibitor, partial curve, poor fit]. For CCOc1ccc(S(=O)(=O)NCc2cccnc2)cc1NC(=O)c1ccccc1F, the Potency was inconclusive: 18.5 µM [inhibitor, single point]. In the case of O=C1CCC(C(=O)Nc2cc(C(F)(F)F)ccc2-n2cncn2)=NN1, the Potency is reported as inconclusive: 11.7 µM [inhibitor, single point]. With COc1ccccc1-n1c(C)c(C(C)=O)c2cc(O)ccc21 the Potency was inconclusive: 0.465 µM [inhibitor, partial curve, poor fit]. In the case of Cc1ccc(N2CC(C(=O)N3CCC4(CC3)CC(=O)c3ccccc3O4)CC2=O)cc1C (stereo not drawn), the Potency is reported as active: 11.7 µM. For COc1ccc(OCC(=O)NC2CCCN(Cc3ccc(Cl)cc3)C2)cc1 (stereo not drawn), the Potency was inconclusive: 7.38 µM [inhibitor, partial curve, poor fit]. In the case of C=CCOC(=O)C1=C(C)NC(=O)NC1c1ccc(N(C)C)cc1 (stereo not drawn), the Potency is reported as inconclusive: 11.7 µM [inhibitor, single point]. In the case of O=C(CSc1nc(C(F)(F)F)cc(=O)[nH]1)N1CCCC1, the “activity change, negative = inhibition” value is reported as inactive: 0.227%. For CSc1ccc(C(=O)C2CCCN(C(=O)CCn3cncn3)C2)cc1 (stereo not drawn), the Potency was inconclusive: 18.5 µM [inhibitor, single point]. In the case of CSCCC(NC(=O)COc1ccccc1)C(=O)N(C)Cc1cccc(F)c1 (stereo not drawn), the “activity change, negative = inhibition” value is reported as inactive: -21.2%. For Cn1c(=O)c2c(nc(N/N=C/c3cccs3)n2C)n(C)c1=O, the Potency was inconclusive: 10.4 µM [inhibitor, partial curve, poor fit]. In the case of Cc1cc(/C=N/NC(=O)c2cccs2)c(C)n1-c1cnccn1, the “activity change, negative = inhibition” value is reported as inactive: 73.2%. In the case of O=C(Nc1cccc(S(=O)(=O)N2CCOCC2)c1)c1cccc(S(=O)(=O)N2CCCCC2)c1, the Potency is reported as inconclusive: 9.28 µM [inhibitor, partial curve]. In the case of CC(=O)Nc1ccc(NC(=S)Nc2ccc(F)cc2)cc1, the Potency is reported as inconclusive: 18.5 µM [inhibitor, single point]. With CCN(CC)S(=O)(=O)c1ccc(/C=C/C(=O)NC2CCCCC2)cc1 the Potency was active: 4.65 µM. In the case of CC1CN(C(=O)CCNS(=O)(=O)c2ccc(Br)cc2)CC(C)O1 (stereo not drawn), the “activity change, negative = inhibition” value is reported as inactive: 19%. In the case of CCn1c2ccccc2c2cc(N=C3SC(CC(=O)Nc4ccccc4OC)C(=O)N3C)ccc21 (stereo not drawn), the Potency is reported as inconclusive: 0.738 µM [inhibitor, full curve, poor fit]. For CCOC(=O)CNC(=O)c1ccc(Cl)s1, the Potency was inconclusive: 0.0052 µM [inhibitor, full curve, poor fit]. For COc1ccc(CNC(=O)C2CCN(C(=O)c3ccco3)CC2)cc1, the Potency was inconclusive: 3.7 µM [inhibitor, partial curve, poor fit]. With COc1ccc(C)cc1NS(=O)(=O)c1cccc2nonc12 the Potency was inconclusive: 0.37 µM [inhibitor, partial curve, poor fit]. With Oc1ccc(C(c2nnnn2C2CCCCC2)N2CCOCC2)cc1 (stereo not drawn) the Potency was inconclusive: 4.15 µM [inhibitor, partial curve, poor fit]. For Cc1cc(C)c2c(n1)SCC(=O)N2CC(=O)Nc1ccc(Br)c(C)c1, the “activity change, negative = inhibition” value was inactive: 0%. With COC(=O)[C@]1(Cc2ccccc2)N[C@H](c2ccc(-c3ccc(Cl)c(Cl)c3)cc2)[C@@H]2C(=O)N(C)C(=O)[C@@H]21 the Potency was active: 9.28 µM. For O=C(COC(=O)c1ccc(F)c(S(=O)(=O)N2CCOCC2)c1)NCCc1ccccc1, the “activity change, negative = inhibition” value was inactive: -13.6%. With CC(Sc1nnnn1C)C(=O)Nc1ccccc1 (stereo not drawn) the “activity change, negative = inhibition” value was inactive: 30.8%. With CCn1c(=O)c2sccc2n(Cc2cc(C(=O)OC)ccc2OC)c1=O the “activity change, negative = inhibition” value was inactive: -2.37%. For O=C(c1ccc(OC2CCN(Cc3cccc(F)c3)CC2)cc1)N1CCCCC1, the Potency was inconclusive: 10.4 µM [inhibitor, partial curve, poor fit]. In the case of CCOc1ccc(CN2CCN(Cc3ccon3)CC2CCO)cc1 (stereo not drawn), the Potency is reported as inconclusive: 9.28 µM [inhibitor, single point]. With COC(=O)c1cc(C(=O)Nc2ccc(S(=O)(=O)NC(C)(C)C)cc2)cc([N+](=O)[O-])c1 the Potency was active: 2.62 µM. With O=C(Cc1ccc([N+](=O)[O-])cc1)NNC(=O)c1ccc2c(c1)OCO2 the Potency was inconclusive: 18.5 µM [inhibitor, single point]. With CCOC(=O)c1c(NC(=S)NC(C)=O)sc(C)c1C the “activity change, negative = inhibition” value was inactive: 31.9%. With COc1ccc(-c2ccc(=O)n(CC(=O)NCc3ccco3)n2)cc1 the “activity change, negative = inhibition” value was inactive: 225%. With CCCCCCC[n+]1ccc(-c2cc[n+](CCCCCCC)cc2)cc1 the Potency was active: 0.329 µM. For CCc1cc(=O)oc2cc(OCC(=O)N3CCC(C(N)=O)CC3)ccc12, the Potency was inconclusive: 18.5 µM [inhibitor, single point]. In the case of COCCCn1c(C(=O)NCCC2=CCCCC2)cc2c(=O)n3ccccc3nc21, the Potency is reported as inconclusive: 13.1 µM [inhibitor, single point]. For Cc1ccc2nc(Cl)c(/C=N/NC(=O)c3ccccc3O)cc2c1, the Potency was inconclusive: 4.65 µM [inhibitor, single point]. With Cc1cccc(-n2c(CNC(=O)c3cccc([N+](=O)[O-])c3C)n[nH]c2=S)c1 the Potency was inconclusive: 4.65 µM [inhibitor, single point]. In the case of Cc1ccc(S(=O)(=O)N2CCCCC2)cc1C(=O)NCc1ccccn1, the “activity change, negative = inhibition” value is reported as inactive: 15.4%. For CCOC(=O)C1CCCN(C(=O)Cn2c(=O)c3cccn3c3cccnc32)C1 (stereo not drawn), the Potency was active: 10.4 µM. In the case of Cn1cc(C(=O)[C@@H]2CCc3[nH]cnc3C2)c2ccccc21, the “activity change, negative = inhibition” value is reported as inactive: -16.8%. For COc1ccc(N(Cc2cc3cccc(C)c3[nH]c2=O)S(=O)(=O)c2ccc(OC)cc2)cc1, the Potency was inconclusive: 11.7 µM [inhibitor, single point]. With COC(=O)C1=COC(C)C2CN3CCc4c([nH]c5cc(OC)c(OC)cc45)C3CC12 (stereo not drawn) the Potency was active: 0.828 µM. In the case of CCCCn1c(N)c(Sc2ccc(Cl)cc2)c(=O)[nH]c1=O, the Potency is reported as inconclusive: 7.38 µM [inhibitor, single point]. With Cc1ccc(C2C3=C(CC(C)(C)CC3=O)N(CCN3CCOCC3)C3=C2C(=O)CC(C)(C)C3)cc1 the Potency was inconclusive: 3.29 µM [inhibitor, partial curve]. With Cc1cccc(C(=O)NNC(=O)C(=O)NC(C)(C)C)c1 the Potency was inconclusive: 4.15 µM [inhibitor, partial curve, poor fit]. With O=C(NCc1ccccc1CN1CCCC1)c1cc2cc(Cl)ccc2o1 the Potency was inconclusive: 18.5 µM [inhibitor, single point]. In the case of Cc1ccc(-n2nc3c(=O)n(CC(=O)NC(C)CCc4ccccc4)nc(C)c3c2C)cc1 (stereo not drawn), the Potency is reported as inconclusive: 2.33 µM [inhibitor, partial curve]. In the case of O=C(CCCOc1ccccc1)Nc1cccc(S(=O)(=O)N2CCCCC2)c1, the Potency is reported as inconclusive: 11.7 µM [inhibitor, single point]. In the case of Clc1cccc(Cl)c1CON/C=N/c1ncnc2sccc12, the Potency is reported as inconclusive: 13.1 µM [inhibitor, single point]. For COc1ccc(OCC(=O)Nc2cccc(C(C)=O)c2)cc1, the “activity change, negative = inhibition” value was inactive: 25.9%. With Cc1cc(/C=N/NC(N)=S)c(C)n1-c1ccc(Cl)c(Cl)c1 the Potency was active: 11.7 µM. With O=C(Nc1nnc(-c2ccc(F)cc2)s1)c1ccco1 the Potency was inconclusive: 8.28 µM [inhibitor, partial curve]. In the case of O=C(COC(=O)c1cnccn1)c1ccc(C2CCCCC2)cc1, the Potency is reported as inconclusive: 18.5 µM [inhibitor, single point]. With CCOc1ccc(CCNC(=O)c2ccc(F)c(S(=O)(=O)N3CCOCC3)c2)cc1OCC the Potency was inconclusive: 1.17 µM [inhibitor, full curve]. With O=C(CSc1nnc(Nc2ccccc2F)s1)Nc1cccc(S(=O)(=O)N2CCCCC2)c1 the Potency was inconclusive: 18.5 µM [inhibitor, single point]. With COc1ccc(S(=O)(=O)Oc2cccc(/C=N/N=C3/NC(=O)C(CC(=O)O)S3)c2)cc1 (stereo not drawn) the Potency was inconclusive: 18.5 µM [inhibitor, single point].
